Source: the supplement of paper PMC11732987, “Enantioselective OTUD7B fragment discovery through chemoproteomics screening and high-throughput optimisation” (Communications Chemistry, 2025)
The list shows a part of the results. The data scatter; read single values as rough.

Compound: ClCC(=O)N[C@@H]1CCCc2ccccc12
Assay: log2 mean competition ratio of IA-DTB cysteine labelling (DMSO/compound) (log2 ratio); higher = stronger cysteine engagement by compound
Settings: 50 µM; treatment time: 4 h; cell line lysate: HEK293T
Protocol: (§1)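 IA-DTB competitive cysteine chemoproteomics in HEK293T RIPA lysate. Lysates were treated with compound 29 or 30 at 50 or 200 µM for 4 h, then IA-DTB (500 µM, 1 h), trypsin-digested, NeutrAvidin-enriched and analysed by diaPASEF. Competition ratio = intensity DMSO / intensity compound (n=4 treated, n=64 DMSO); binding: mean log2 CR ≥ 1 and p ≤ 0.05 plus QC filters. Target is the cysteine site.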

Target	log2 mean competition ratio
NBEA C315 (UniProt Q8NFP9)	0.19
NDOR1 C507 (UniProt Q9UHB4)	0.0617
NDUFS2 C347 (UniProt O75306)	0.431
NDUFA8 C110 (UniProt P51970)	0.0388
NCDN C351 (UniProt Q9UBB6)	0.0454
NKIRAS2 C122 (UniProt Q9NYR9)	-0.06
NEK6 C40 (UniProt Q9HC98)	-0.0813
NOL8 C259 (UniProt Q76FK4)	-0.14
NNT C308 (UniProt Q13423)	-0.00744
NME3 C158	-0.0181
NCKAP1 C556 (UniProt Q9Y2A7)	-0.247

Same assay, conditions: 200 µM; treatment time: 4 h; cell line lysate: HEK293T

Target	log2 mean competition ratio
NOP58 C205 (UniProt Q9Y2X3)	0.17
NOL10 C202 (UniProt Q9BSC4)	-0.237
NLRX1 C331 (UniProt Q86UT6)	-0.202
NIPBL C2374 (UniProt Q6KC79)	0.224
NASP C254 (UniProt P49321)	0.0842
NOA1 C364 (UniProt Q8NC60)	-0.0106
NFAT5 C108 (UniProt O94916)	-0.147
NIPBL C1889 (UniProt Q6KC79)	-0.0453
NAT1 C148 (UniProt P18440)	-0.0848
NCAPG C966 (UniProt Q9BPX3)	0.0775
NFATC4 C350 (UniProt Q14934)	-0.339
NAV1 C1508 (UniProt Q8NEY1)	0.119
NEK3 C504 (UniProt P51956)	0.119
NIT2 C44 (UniProt Q9NQR4)	0.106
NFKB2 C4 (UniProt Q00653)	-0.605
NOA1 C272 (UniProt Q8NC60)	0.027
NEK9 C878 (UniProt Q8TD19)	0.0567
NATD1 C17 (UniProt Q8N6N6)	0.0084
NFX1 C661 (UniProt Q12986)	0.0283

Target	log2 mean competition ratio
NIN C297 (UniProt Q8N4C6)	0.0529
NDC80 C449 (UniProt O14777)	0.0558
NAV1 C1446 (UniProt Q8NEY1)	0.161
NFX1 C1067 (UniProt Q12986)	0.0945
NGLY1 C21 (UniProt Q96IV0)	-0.165
NIBAN2 C512 (UniProt Q96TA1)	0.17
NCAPD3 C330 (UniProt P42695)	0.53
NBEA C315 (UniProt Q8NFP9)	-0.478
NDOR1 C507 (UniProt Q9UHB4)	-0.478
NDUFS2 C347 (UniProt O75306)	0.238
NDUFA8 C110 (UniProt P51970)	0.656
NCDN C351 (UniProt Q9UBB6)	-0.163
NKIRAS2 C122 (UniProt Q9NYR9)	0.0791
NEK6 C40 (UniProt Q9HC98)	0.373
NOL8 C259 (UniProt Q76FK4)	0.135
NNT C308 (UniProt Q13423)	-0.254
NME3 C158	-0.169
NCKAP1 C556 (UniProt Q9Y2A7)	-0.53

Compound: ClCC(=O)N[C@H]1CCCc2ccccc12
Assay: as above
Settings: 50 µM; treatment time: 4 h; cell line lysate: HEK293T
Protocol: as §1

Target	log2 mean competition ratio
NOP58 C205 (UniProt Q9Y2X3)	0.329
NOL10 C202 (UniProt Q9BSC4)	0.255
NLRX1 C331 (UniProt Q86UT6)	0.232
NIPBL C2374 (UniProt Q6KC79)	-0.176
NASP C254 (UniProt P49321)	-0.0969
NOA1 C364 (UniProt Q8NC60)	0.12
NFAT5 C108 (UniProt O94916)	0.0694
NIPBL C1889 (UniProt Q6KC79)	-0.0894
NAT1 C148 (UniProt P18440)	0.0493
NCAPG C966 (UniProt Q9BPX3)	-0.065
NFATC4 C350 (UniProt Q14934)	-0.0235
NAV1 C1508 (UniProt Q8NEY1)	0.0705
NEK3 C504 (UniProt P51956)	0.0203
NIT2 C44 (UniProt Q9NQR4)	0.274
NFKB2 C4 (UniProt Q00653)	0.0676
NOA1 C272 (UniProt Q8NC60)	0.00304
NEK9 C878 (UniProt Q8TD19)	0.331
NATD1 C17 (UniProt Q8N6N6)	-0.0382
NFX1 C661 (UniProt Q12986)	0.0334

Target	log2 mean competition ratio
NIN C297 (UniProt Q8N4C6)	-0.822
NDC80 C449 (UniProt O14777)	0.066
NAV1 C1446 (UniProt Q8NEY1)	0.118
NFX1 C1067 (UniProt Q12986)	-0.252
NGLY1 C21 (UniProt Q96IV0)	-0.711
NIBAN2 C512 (UniProt Q96TA1)	0.0634
NCAPD3 C330 (UniProt P42695)	-0.388
NBEA C315 (UniProt Q8NFP9)	0.123
NDOR1 C507 (UniProt Q9UHB4)	-0.097
NDUFS2 C347 (UniProt O75306)	1.01
NDUFA8 C110 (UniProt P51970)	-0.183
NCDN C351 (UniProt Q9UBB6)	0.32
NKIRAS2 C122 (UniProt Q9NYR9)	-0.228
NEK6 C40 (UniProt Q9HC98)	-0.475
NOL8 C259 (UniProt Q76FK4)	-0.123
NNT C308 (UniProt Q13423)	-0.119
NME3 C158	0.287
NCKAP1 C556 (UniProt Q9Y2A7)	0.407
